Measured values: publication PMC3911973
No constants are given. Whether binding was seen depends on the method and setting. In cells and extracts the contact can be indirect. Some entries that bind do so weakly or less than the wild type. Where a sequence is shown, tags or fusion partners need not be part of it.

T1: Kaiso (human (endogenous in SPC-A-1 and LTEP-a-2)) (UniProt Q86T24)
T1 sequence: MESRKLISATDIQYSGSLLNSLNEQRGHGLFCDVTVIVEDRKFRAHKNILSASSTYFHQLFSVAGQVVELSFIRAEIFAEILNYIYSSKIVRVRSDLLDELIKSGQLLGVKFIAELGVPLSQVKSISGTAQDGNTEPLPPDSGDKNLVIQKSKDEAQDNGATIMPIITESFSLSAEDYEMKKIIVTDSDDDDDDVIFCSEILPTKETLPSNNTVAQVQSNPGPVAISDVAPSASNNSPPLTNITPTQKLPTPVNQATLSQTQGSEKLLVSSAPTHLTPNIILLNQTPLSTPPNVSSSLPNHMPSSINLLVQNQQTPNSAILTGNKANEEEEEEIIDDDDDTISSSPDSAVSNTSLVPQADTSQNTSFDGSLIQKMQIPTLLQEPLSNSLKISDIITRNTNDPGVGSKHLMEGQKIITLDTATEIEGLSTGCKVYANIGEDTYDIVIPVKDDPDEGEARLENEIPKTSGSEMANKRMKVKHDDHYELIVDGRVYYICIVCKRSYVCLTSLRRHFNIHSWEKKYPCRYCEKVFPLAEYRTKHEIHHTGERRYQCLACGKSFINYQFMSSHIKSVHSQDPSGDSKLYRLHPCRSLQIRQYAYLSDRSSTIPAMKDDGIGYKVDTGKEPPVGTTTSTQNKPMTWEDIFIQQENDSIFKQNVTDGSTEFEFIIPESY


Target: T1, Kaiso (human (endogenous in SPC-A-1 and LTEP-a-2))
Test: co-IP; lysates (IP cell lysis buffer, 1 mM PMSF) of SPC and LTE cells transfected with DDK-MYC tagged p120ctn-1A or -3A; precipitated with anti-Kaiso (Abcam) and Protein A+G agarose, 3 h at 4°C; mouse IgG and PBS as controls; blotted for p120ctn and MYC

| binding | Binder |
| --- | --- |
| binds | p120ctn isoform 1A, DDK-MYC tagged (protein, UniProt O60716-5 1-933) MDDSEVESTASILASVKEQEAQFEKLTRALEEERRHVSAQLERVRVSPQDANPLMANGTLTRRHQNGRFVGDADLERQKFSDLKLNGPQDHSHLLYSTIPRMQEPGQIVETYTEEDPEGAMSVVSVETSDDGTTRRTETTVKKVVKTVTTRTVQPVAMGPDGLPVDASSVSNNYIQTLGRDFRKNGNGGPGPYVGQAGTATLPRNFHYPPDGYSRHYEDGYPGGSDNYGSLSRVTRIEERYRPSMEGYRAPSRQDVYGPQPQVRVGGSSVDLHRFHPEPYGLEDDQRSMGYDDLDYGMMSDYGTARRTGTPSDPRRRLRSYEDMIGEEVPSDQYYWAPLAQHERGSLASLDSLRKGGPPPPNWRQPELPEVIAMLGFRLDAVKSNAAAYLQHLCYRNDKVKTDVRKLKGIPVLVGLLDHPKKEVHLGACGALKNISFGRDQDNKIAIKNCDGVPALVRLLRKARDMDLTEVITGTLWNLSSHDSIKMEIVDHALHALTDEVIIPHSGWEREPNEDCKPRHIEWESVLTNTAGCLRNVSSERSEARRKLRECDGLVDALIFIVQAEIGQKDSDSKLVENCVCLLRNLSYQVHREIPQAERYQEAAPNVANNTGPHAASCFGAKKGKGKKPIEDPANDTVDFPKRTSPARGYELLFQPEVVRIYISLLKESKTPAILEASAGAIQNLCAGRWTYGRYIRSALRQEKALSAIADLLTNEHERVVKAASGALRNLAVDARNKELIGKHAIPNLVKNLPGGQQNSSWNFSEDTVISILNTINEVIAENLEAAKKLRETQGIEKLVLINKSGNRSEKEVRAAALVLQTIWGYKELRKPLEKEGWKKSDFQVNLNNASRSQSSHSYDDSTLPLIDRNQKSDKKPDREEIQMSNMGSNTKSLDNNYSTPNERGDHNRTLDRSGDLGDMEPLKGTTPLMQKI |
| binds | p120ctn isoform 3A, DDK-MYC tagged (protein, UniProt O60716-21 1-832) MQEPGQIVETYTEEDPEGAMSVVSVETSDDGTTRRTETTVKKVVKTVTTRTVQPVAMGPDGLPVDASSVSNNYIQTLGRDFRKNGNGGPGPYVGQAGTATLPRNFHYPPDGYSRHYEDGYPGGSDNYGSLSRVTRIEERYRPSMEGYRAPSRQDVYGPQPQVRVGGSSVDLHRFHPEPYGLEDDQRSMGYDDLDYGMMSDYGTARRTGTPSDPRRRLRSYEDMIGEEVPSDQYYWAPLAQHERGSLASLDSLRKGGPPPPNWRQPELPEVIAMLGFRLDAVKSNAAAYLQHLCYRNDKVKTDVRKLKGIPVLVGLLDHPKKEVHLGACGALKNISFGRDQDNKIAIKNCDGVPALVRLLRKARDMDLTEVITGTLWNLSSHDSIKMEIVDHALHALTDEVIIPHSGWEREPNEDCKPRHIEWESVLTNTAGCLRNVSSERSEARRKLRECDGLVDALIFIVQAEIGQKDSDSKLVENCVCLLRNLSYQVHREIPQAERYQEAAPNVANNTGPHAASCFGAKKGKGKKPIEDPANDTVDFPKRTSPARGYELLFQPEVVRIYISLLKESKTPAILEASAGAIQNLCAGRWTYGRYIRSALRQEKALSAIADLLTNEHERVVKAASGALRNLAVDARNKELIGKHAIPNLVKNLPGGQQNSSWNFSEDTVISILNTINEVIAENLEAAKKLRETQGIEKLVLINKSGNRSEKEVRAAALVLQTIWGYKELRKPLEKEGWKKSDFQVNLNNASRSQSSHSYDDSTLPLIDRNQKSDKKPDREEIQMSNMGSNTKSLDNNYSTPNERGDHNRTLDRSGDLGDMEPLKGTTPLMQKI |
